The target of this assay is Flag-tagged BZW2 with a W2 domain deletion (human). The assay is described as follows: co-IP; Flag-tagged protein expressed in HEK293; lysis in 1% NP40, 25 mM Tris-HCl pH 7.4, 150 mM NaCl, 10% glycerol; anti-FLAG M2 affinity gel, three washes with 0.2% NP40 buffer; partners detected by Western blot. A general note: Immunoblotting shows a protein as a band on a membrane.

No constants are given. Whether binding was seen depends on the method and setting. Binding seen in cells or lysates may run through a third protein.

B1: BCAP31 (protein, UniProt P51572 1-246)
chain: MSLQWTAVATFLYAEVFVVLLLCIPFISPKRWQKIFKSRLVELLVSYGNTFFVVLIVILVLLVIDAVREIRKYDDVTEKVNLQNNPGAMEHFHMKLFRAQRNLYIAGFSLLLSFLLRRLVTLISQQATLLASNEAFKKQAESASEAAKKYMEENDQLKKGAAVDGGKLDVGNAEVKLEEENRSLKADLQKLKDELASTKQKLEKAENQVLAMRKQSEGLTKEYDRLLEEHAKLQAAVDGPMDKKEE
As for B1, the binding entry is listed as “no binding”.

Source of the values: paper PMC10835002.
